This passage reports AC50 results from PubChem BioAssay AID445 (National Center for Advancing Translational Sciences (NCATS), 2006).

The experiment in a line: IkB Signaling. As to conditions: ABC-DLBCL IkBa-CBG/CBR dual luciferase ratio (green luciferase fused to IkBa over red control in OCI-Ly3 lymphoma cells), 4 h. In short, it runs like this: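 Curves were fitted separately to fusion (green), unfused (red) and ratio luminescence, then classed by r2, magnitude and activity. Cells: OCI-Ly3, 4 h compound plus doxycycline at 37C; 10 uM MG-132 defined full response.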
Where [1] appears, read: measured here: control luc red channel unless noted.
[2] abbreviates: measured here: IkB-luc green channel.
[3] abbreviates: measured here: control luc red channel.

The list shows a part of the results. These are further read-outs of the screen, such as a control signal, another cell line or another target. No call is given for them. The list favours compounds with an active or inconclusive main result. The note in brackets gives the kind of curve behind each potency; many fits are weak.

Broadly, the AC50 is the concentration at which the activity in the assay is half-maximal. As for `Cc1ccc(C(=O)c2cn(Cc3cccc(C)c3)c3nc(C)ccc3c2=O)cc1`, the AC50 under setting [1] is 39.8 µM [falling, single point].
Same read-out and setting: then `COc1cccc2c1C(=N)c1c(O)c3c(c(O)c1C2=O)C[C@](O)(C(C)=O)C[C@@H]3O[C@H]1C[C@H](N)[C@@H](O)[C@H](C)O1`, with 2.51 µM [falling, partial curve]; and `Cc1ccc(NC(=O)CSc2ncc(S(=O)(=O)c3ccc(C(C)C)cc3)c(=O)[nH]2)cc1C`, with 0.251 µM [falling, full curve, poor fit].
Still for that read-out and setting: then `Cc1ccc(CNC(=O)c2nc(SCc3ccc(F)cc3)ncc2Cl)cc1`, with 1.26 µM [rising, partial curve]; and `Cc1cc(C)n2c(Nc3ccc4c(c3)OCCO4)c(-c3ccc(Cl)cc3)nc2n1`, with 25.1 µM [falling, single point]; and `COC(=O)c1cc(S(=O)(=O)N2CCN(c3ccc(OC)cc3)CC2)c[nH]1`, with 10 µM [falling, partial curve].
In the case of `CC(C)n1c(-c2ccc(N(C)C)cc2)nc2ccccc21`, the concentration at half-maximal activity (AC50) by setting is: under setting [2], 39.8 µM [rising, single point]; under setting [3], 25.1 µM [falling, partial curve].
As for `Cc1cc(C(=O)OCC(=O)NCc2ccco2)c(C)n1-c1ccccc1`, the AC50 under setting [1] was 7.94 µM [rising, partial curve] [measured here: IkB-luc green channel].
As to `Cc1ccc(-n2c(C)cc(C(=O)CSc3nncs3)c2C)cc1`, under setting [1], the AC50 was 25.1 µM [falling, partial curve].
`C=CCc1cccc(CNc2nc3ccccc3n2CCC)c1O`: the AC50 under setting [1] was 25.1 µM [falling, partial curve].
For `CCCCSC1=C(C#N)C(c2ccccc2C)C(C(=O)OCC)C(=O)N1` (stereo not drawn), under setting [1], the AC50 is 15.8 µM [falling, partial curve].
Same read-out and setting: then `COCCn1c(N)c(C(=O)OCc2ccccc2)c2nc3ccccc3nc21`, with 12.6 µM [falling, partial curve]; and `Cn1c(CCNC(=O)c2ccco2)nc2cc(NS(=O)(=O)c3ccc(Cl)cc3)ccc21`, with 3.98 µM [falling, full curve, poor fit].
For the molecule `COC(=O)C1=C(N)Oc2cc(C)n(CCc3ccccc3)c(=O)c2C1c1cccnc1` (stereo not drawn), the concentration at half-maximal activity (AC50) under setting [1] was 12.6 µM [falling, partial curve].
Still for that read-out and setting: then `COc1ccc(-c2cc3ccc(O)c(CN4CCC(C)CC4)c3oc2=O)cc1`, with 5.01 µM [rising, single point].
The same measure, in the same setting: then `O=C(Nc1ccc2oc(-c3cccnc3)nc2c1)c1ccc(-c2ccccc2OC(F)(F)F)o1`, with 0.316 µM [falling, full curve, poor fit].
Same read-out and setting: then `O=C(O)c1ccc(Nc2nc3ccccc3n3cnnc23)cc1`, with 0.0501 µM [falling, full curve]; and `CC(=O)Nc1nonc1-c1nnc(SCC(=O)Nc2cccc(F)c2)n1-c1ccccc1`, with 15.8 µM [falling, partial curve].
`Cc1ccc(N2CCN(S(=O)(=O)c3cc(C(=O)Nc4cc(Cl)cc(Cl)c4)ccc3F)CC2C)cc1` (stereo not drawn): the half-maximal activity concentration (AC50) under setting [1] is 12.6 µM [falling, single point].
For `COC(=O)c1scc(-c2ccc(C)cc2)c1S(=O)(=O)Nc1ccc(F)cc1F`, under setting [1], the half-maximal activity concentration (AC50) is 39.8 µM [falling, single point].
Same read-out and setting: then `c1ccc(NCc2nc(-c3ccccc3)no2)cc1`, with 10 µM [falling, partial curve]; and `O=C(Nc1ccc(N2CCOCC2)cc1)Nc1ccc2nc(-c3ccco3)c(-c3ccco3)nc2c1`, with 20 µM [falling, partial curve].
The same measure, in the same setting: then `O=C(OCc1cc(=O)n2c(n1)sc1ccccc12)c1ccc2c(=O)n3c(nc2c1)CCC3`, with 15.8 µM [falling, partial curve]; and `COc1ccccc1N1CCN(c2ccc(=O)n(CC(=O)NCc3ccc(OC(C)C)cc3)n2)CC1`, with 25.1 µM [falling, single point].
Same read-out and setting: then `O=C(Nc1ccc(Br)cc1)c1ccc(F)c(S(=O)(=O)N2CCCc3ccccc32)c1`, with 7.94 µM [falling, partial curve]; and `O=C(COc1ccc(Br)cc1Cl)Nc1ncn[nH]1`, with 6.31 µM [rising, partial curve].
Take `c1ccc2c(c1)CCN(c1nc3cc4c(cc3s1)OCO4)C2`: under setting [1], the AC50 is 12.6 µM [falling, partial curve].
On the same count and under the same terms, then `CCc1ccc(NC(=O)CSc2nc(-c3ccccc3Cl)nc3c2Cc2c(CO)cnc(C)c2O3)cc1`, with 0.794 µM [rising, full curve].
Still for that read-out and setting: then `COc1ccc(OCC(=O)Nc2ccc3c(c2)nc(CCNC(=O)c2ccco2)n3C)cc1`, with 39.8 µM [rising, single point]; and `Cc1ccc(Cl)cc1N1CCN(C(=O)c2ccc(CN3CCOCC3)cc2)CC1`, with 15.8 µM [falling, partial curve].
Turning to `CCc1ccc2nc(N(Cc3cccnc3)C(C)=O)sc2c1`, the AC50 under setting [1] was 10 µM [rising, single point].
Same read-out and setting: then `CCOC(=O)c1ccc(CN(Cc2ccc(Cl)cc2Cl)S(=O)(=O)c2ccc(F)c(C)c2)cc1`, with 15.8 µM [falling, partial curve].
For the molecule `COc1ccc(C2CC(=O)N(Cc3ccc(F)cc3)c3ccccc3S2)cc1OC` (stereo not drawn), under setting [1], the AC50 is 20 µM [falling, partial curve].
The same measure, in the same setting: then `COc1ccc(OC)c2sc(N3CCN(C(=O)c4ccc5c(c4)CCCC5)CC3)nc12`, with 39.8 µM [falling, single point]; and `c1ccc(N2CCN(Cc3cccn3-c3nnc(N4CCN(C5CCCCC5)CC4)s3)CC2)cc1`, with 31.6 µM [falling, partial curve, poor fit]; and `O=C(CN1CCN(Cc2cccc(Cl)c2)C1=O)NCc1ccc(F)cc1`, with 15.8 µM [falling, single point].
Take `Cc1nn(-c2ccccc2)c(-n2cccc2)c1C(=O)NCCc1ccc(Cl)cc1`: the half-maximal activity concentration (AC50) under setting [1] was 15.8 µM [falling, partial curve].
Consider `CN1/C(=C\C(=O)COC(=O)CN2C(=O)C3CC=CCC3C2=O)C(C)(C)c2ccccc21` (stereo not drawn), for which the concentration at half-maximal activity (AC50) under setting [1] is 25.1 µM [falling, single point].
In the case of `COc1ccc(NC(=O)c2c(NCc3ccc(N(C)C)cc3)sc3c2CCC3)cc1`, under setting [1], the AC50 was 12.6 µM [falling, partial curve].
Same read-out and setting: then `Cc1ccsc1CN(C(=O)c1oc2ccc(F)cc2c1C)C1CCS(=O)(=O)C1` (stereo not drawn), with 15.8 µM [falling, partial curve]; and `Cc1ccc(Nc2ncc(C(=O)N3CCN(c4ccc(F)cc4)CC3)c3ccccc23)cc1Cl`, with 1.58 µM [falling, full curve].
The same measure, in the same setting: then `CCOc1ccc(-c2nonc2NC(=O)c2oc3cc(C)c(C)cc3c2C)cc1OCC`, with 0.794 µM [rising, full curve].
Consider `CCOC(=O)c1c(-c2ccc(C)o2)csc1NC(=O)COC(=O)c1cccs1`, for which the AC50 under setting [1] is 31.6 µM [falling, partial curve].
As to `CCc1ccc(NC(=O)c2ccc(F)c(S(=O)(=O)N3CCC4(CC3)OCCO4)c2)cc1`, the half-maximal activity concentration (AC50) under setting [1] was 31.6 µM [falling, single point].
With `O=C(CS(=O)(=O)Cc1ccccc1)N1CCN(c2cccc(C(F)(F)F)c2)CC1`, the concentration at half-maximal activity (AC50) under setting [1] is 20 µM [falling, partial curve].
On to `CCS(=O)(=O)c1ccc(O)c(Nc2cc(C)nc(SC)n2)c1`, for which, under setting [1], the AC50 is 15.8 µM [falling, partial curve].
Regarding `CCC(=O)C1=C(c2ccc(Cl)cc2)N(C(=O)CC)n2c(C)nnc2S1`, the AC50 reads like this: under setting [2], 31.6 µM [rising, single point]; under setting [3], 31.6 µM [falling, single point].
In the case of `CCOC(=O)CSc1nnc(CNC(=O)c2cccc(C)c2)n1-c1ccccc1OC`, under setting [1], the half-maximal activity concentration (AC50) was 15.8 µM [falling, partial curve].
Consider `CCC(C)Cn1c(/C=C/c2ccccc2)nc2ccccc21` (stereo not drawn), for which the AC50 under setting [1] was 25.1 µM [falling, partial curve].
Take `CCOC(=O)c1cccc(NC(=O)c2cc3c(=O)n(C)c4ccccc4c3n2C)c1`: the concentration at half-maximal activity (AC50) under setting [1] was 3.98 µM [falling, full curve].
Take `Cc1cc(C)cc(NC(=O)c2ccc3c(c2)nnn3C2CCCC2)c1`: the concentration at half-maximal activity (AC50) under setting [1] was 1.58 µM [rising, full curve].
Turning to `Cc1ccc(NC2=C(CC(=O)O)C(c3ccc(F)cc3)N(c3ccc(C)cc3)C2=O)cc1` (stereo not drawn), the half-maximal activity concentration (AC50) under setting [1] is 25.1 µM [falling, partial curve].
On the same count and under the same terms, then `CCN(CC)CCOC(=O)c1ccc(NC(=O)c2nn(C)c3c2COc2ccccc2-3)cc1`, with 15.8 µM [falling, partial curve].
Regarding `CC1CCN(S(=O)(=O)c2nnc(NC(=O)c3ccc(C(C)C)cc3)s2)CC1`, the half-maximal activity concentration (AC50) under setting [1] was 20 µM [falling, partial curve].
Turning to `O=C(c1cc(-c2cccc(Cl)c2)on1)N1CCN(c2ccccc2)CC1`, under setting [1], the half-maximal activity concentration (AC50) is 0.1 µM [falling, full curve].
On the same count and under the same terms, then `CC(C)c1cnc2c(c1SCC(=O)Nc1ccc(OC(F)(F)F)cc1)c(=O)n(C)c(=O)n2C`, with 0.0631 µM [falling, full curve].
With `CCn1c(C(=O)NCc2ccc(OC(C)C)cc2)cc2oc3ccccc3c21`, the AC50 under setting [1] was 10 µM [falling, partial curve].
As for `Cc1cccc(N2C(=O)C(CC(=O)Nc3ccc(Cl)cc3)N(Cc3ccco3)C2=O)c1` (stereo not drawn), the AC50 under setting [1] was 25.1 µM [falling, partial curve].
Regarding `Cc1oc(-c2cccc(Cl)c2)nc1CS(=O)(=O)CC(=O)NCc1ccccc1Cl`, the concentration at half-maximal activity (AC50) under setting [1] was 25.1 µM [falling, partial curve].
For the molecule `Cc1ccc2c(c1)c(=O)c1ccccc1n2CCCC(=O)Nc1cc(Cl)ccc1C`, under setting [1], the concentration at half-maximal activity (AC50) was 5.01 µM [falling, full curve].
The same measure, in the same setting: then `Cc1oc2ccc(O)c(CN3CCN(C)CC3)c2c1C(=O)Nc1cccc(Cl)c1C`, with 31.6 µM [falling, single point].
